The data set can be described thus: Odor descriptors given by a panel of expert perfumers.

As for `CC(C)=CCCC(C)CC=O` (centres unmarked) [CITRONELLAL], the “Odor Descriptor” value is “CITRUS” (Table 11) and “CITRUS” (Table 13). For the same molecule, the “Odor Descriptor 1” value (Table 15) was “CITRUS”, the “Odor Descriptor 1” value (Table 17) was “CITRUS” and the “Odor Descriptor 1” value (Table 19) is given as “CITRUS”. In addition, the “Odor Descriptor 2” value was “CITRONELLA” (Table 15), “CITRONELLA” (Table 17) and “CITRONELLA” (Table 19).
On to `C=CC(C)(O)CCC=C(C)CC` (mixture of isomers) [ETHYL LINALOOL], for which the “Odor Descriptor” value by setting is: (Table 9) “CITRUS”; (Table 11) “CITRUS”; (Table 13) “CITRUS”. The “Odor Descriptor 1” value by setting is: (Table 15) “CITRUS”; (Table 17) “MUGUET”; (Table 19) “CITRUS”. Further, the “Odor Descriptor 2” value (Table 15) is listed as “FLORAL”, the “Odor Descriptor 2” value (Table 17) was “CITRUS” and the “Odor Descriptor 2” value (Table 19) is “FLORAL”.
For `CCOC(=O)C(C)CC` (centres unmarked) [Ethyl 2-methylbutyrate], the “Odor Descriptor” value is, setting by setting: (Table 9) “APPLE”; (Table 11) “FRUITY”; (Table 13) “FRUITY”.
As to `CC(CC=O)CCc1ccccc1` (centres unmarked) [MEFRANAL], the “Odor Descriptor” value (Table 9) is listed as “CITRUS”, the “Odor Descriptor” value (Table 11) is reported as “CITRUS” and the “Odor Descriptor” value (Table 13) is reported as “CITRUS”. In addition, the “Odor Descriptor 1” value (Table 15) was “ALDEHYDIC”, the “Odor Descriptor 1” value (Table 17) is given as “ALDEHYDIC” and the “Odor Descriptor 1” value (Table 19) is given as “ALDEHYDIC”. Besides, the “Odor Descriptor 2” value is recorded as “CITRUS” (Table 15), “CITRUS” (Table 17) and “CITRUS” (Table 19).
For `CCC(C)(O)CCCC(C)C` (centres unmarked) [TETRAHYDROLINALOOL], the “Odor Descriptor” value was “FLORAL” (Table 9), “FLORAL” (Table 11) and “FLORAL” (Table 13).
For `CC/C=C\CCOC(C)=O` [CIS-3-HEXENYL ACETATE], the “Odor Descriptor” value (Table 9) is “GREEN”, the “Odor Descriptor” value (Table 11) was “GREEN” and the “Odor Descriptor” value (Table 13) is “GREEN”. Also, the “Odor Descriptor 1” value by setting is: (Table 15) “GRASS”; (Table 17) “GRASS”; (Table 19) “GRASS”. The “Odor Descriptor 2” value is on record as “FRUITY” (Table 15), “FRUITY” (Table 17) and “FRUITY” (Table 19).
`CCCCC/C=C\CCC=O` [CIS 4 DECENAL]: the “Odor Descriptor 1” value is recorded as “ALDEHYDIC” (Table 15), “ALDEHYDIC” (Table 17) and “ALDEHYDIC” (Table 19). The “Odor Descriptor 2” value is recorded as “CARDAMOM” (Table 15), “CARDAMOM” (Table 17) and “CARDAMOM” (Table 19).

The values above are taken from patent US20100087351A1, “Perfumes for Linear Citrus Release in Rinse-Off Systems” (Quest International Services B.V., priority 2007, published 2010).
